The list does not hold the whole screen: its compounds were picked by chemical class. Not every dose and run of a compound is shown. T/C gives the treated animals as a percentage of the vehicle group. Some entries give survivors of the animals treated and no T/C: the source files T/C as zero there, which appears to mark a toxic dose or a test without result, not a measured value. Some survivor counts are full or nearly so, which does not show that the dose was tolerated: the source hardly ever lists a survival T/C far under the control, and the zero likely stands for such cases as well. Counts of survivors are from the toxicity check (mostly the fifth day) where no day follows; animals may have died later. Schedule codes are those of the source, read here as Q, the interval in days (D) or hours (H), X, the number of doses. Some schedules carry Z or #; the key to these is not given. For survival time, the PubChem record calls one and a half times the control and up active, and a quarter to a half above the control has no call in these data; cut-offs in other NCI protocols can differ. Some entries were tested several times; the values are given in rising order. Some T/C values are marked as having no survivor count here; that says nothing about deaths at the dose. Some T/C values are followed by the survivors on the day toxicity was checked, most often the fifth; where neither a count nor a note follows, no animal had died by that day.
Tested on: CD2F1 mice, L1210 leukemia ip, survival T/C
Assay: NCI In Vivo Anticancer Drug Screen. Data for tumor model L1210 Leukemia (intraperitoneal) in CD2F1 (CDF1) mice
Conditions: T/C endpoint: mean survival time, higher T/C = longer survival
Outline: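 Read-out first: treated-group measurement over vehicle-control measurement, expressed as a ratio. Animals bore a transplanted tumor line and were dosed with compound or vehicle.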

[1] = dose: 100.0 mg/kg/injection, schedule: Q01DX009 (ip), vehicle: saline with Tween-80
[2] = dose: 100.0 mg/kg/injection, schedule: Q04DX003 (ip), vehicle: saline with Tween-80
[3] = dose: 200.0 mg/kg/injection, schedule: Q04DX003 (ip), vehicle: saline with Tween-80
[4] = dose: 400.0 mg/kg/injection, schedule: Q04DX003 (ip), vehicle: saline with Tween-80
[5] = dose: 50.0 mg/kg/injection, schedule: Q04DX002 (ip), vehicle: saline with Tween-80
[6] = dose: 100.0 mg/kg/injection, schedule: Q04DX002 (ip), vehicle: saline with Tween-80

In the case of `Cn1/c(=N/Nc2c([N+](=O)[O-])cc([N+](=O)[O-])cc2[N+](=O)[O-])sc2ccccc21`, the T/C (dose: 100.0 mg/kg/injection, schedule: Q04DX003 (ip), vehicle: saline) is reported as 101 % of control [survivor count not shown], the T/C (dose: 200.0 mg/kg/injection, schedule: Q04DX003 (ip), vehicle: saline) is reported as 100 % of control [survivor count not shown] and the T/C (dose: 400.0 mg/kg/injection, schedule: Q04DX003 (ip), vehicle: saline) is reported as 95 % of control [survivor count not shown].
With `CCN(CCCl)c1ccc(CCN)cc1` the T/C (dose: 2.5 mg/kg/injection, schedule: Q01DX001 (ip), vehicle: saline) was 107 % of control, the T/C (dose: 5.0 mg/kg/injection, schedule: Q01DX001 (ip), vehicle: saline) was 102 % of control and the T/C (dose: 10.0 mg/kg/injection, schedule: Q01DX001 (ip), vehicle: saline) was 105 and 108 % of control. For the same compound, the survivor count (dose: 20.0 mg/kg/injection, schedule: Q01DX001 (ip), vehicle: saline) was 3 of 6, the survivor count (dose: 40.0 mg/kg/injection, schedule: Q01DX001 (ip), vehicle: saline) was 0 of 6 and the survivor count (dose: 100.0 mg/kg/injection, schedule: Q01DX001 (ip), vehicle: saline) was 0 of 6. For the same compound, the survivor count (dose: 200.0 mg/kg/injection, schedule: Q01DX001 (ip), vehicle: saline) was 0 of 6 and the survivor count (dose: 400.0 mg/kg/injection, schedule: Q01DX001 (ip), vehicle: saline) was 0 of 6.
`CCN(CCNCCCNCCSP(=O)(O)O)c1cccc(C)c1` was tested, and the T/C (dose: 1.5 mg/kg/injection, schedule: Q01DX009 (ip), vehicle: saline sonified) was 104 % of control, the T/C (dose: 3.0 mg/kg/injection, schedule: Q01DX009 (ip), vehicle: saline sonified) was 104 % of control and the T/C (dose: 6.0 mg/kg/injection, schedule: Q01DX009 (ip), vehicle: saline sonified) was 104 % of control [5 of 6 alive]. For the same compound, the survivor count (dose: 25.0 mg/kg/injection, schedule: Q01DX009 (ip), vehicle: saline with Tween-80) was 1 of 6, the survivor count (dose: 50.0 mg/kg/injection, schedule: Q01DX009 (ip), vehicle: saline with Tween-80) was 0 of 6 and the survivor count [1] was 1 of 6.
`ClP(c1ccccc1)c1ccccc1` was tested, and the T/C [2] was 97 % of control, the T/C [3] was 101 % of control and the T/C [4] was 98 % of control.
With `O=C(CCCN1CCC(n2c(=O)n(CO)c3ccccc32)CC1)c1ccc(F)cc1` the T/C (dose: 58.0 mg/kg/injection, schedule: Q04DX003 (ip), vehicle: Klucel (hydroxypropylcellulose) (HPC)) was 96 % of control, the T/C (dose: 88.0 mg/kg/injection, schedule: Q04DX003 (ip), vehicle: Klucel (hydroxypropylcellulose) (HPC)) was 91 % of control and the T/C (dose: 133.0 mg/kg/injection, schedule: Q04DX003 (ip), vehicle: Klucel (hydroxypropylcellulose) (HPC)) was 102 % of control.
For `CCCCC(CCCC)NCC(C)O.O=[N+]([O-])c1cc([N+](=O)[O-])c(O)c([N+](=O)[O-])c1`, the T/C (dose: 75.0 mg/kg/injection, schedule: Q01DX001 (ip), vehicle: other) was 102 % of control [survivor count not shown] and the T/C (dose: 150.0 mg/kg/injection, schedule: Q01DX001 (ip), vehicle: other) was 97 % of control [survivor count not shown].
For `COC(=O)N(CCCl)P(=O)(Cl)OC` (stereo not given), the T/C (dose: 62.5 mg/kg/injection, schedule: Q01DX001 (ip), vehicle: water) was 95 % of control, the T/C (dose: 125.0 mg/kg/injection, schedule: Q01DX001 (ip), vehicle: water) was 97 % of control and the T/C (dose: 250.0 mg/kg/injection, schedule: Q01DX001 (ip), vehicle: water) was 95 % of control. For the same compound, the T/C (dose: 500.0 mg/kg/injection, schedule: Q01DX001 (ip), vehicle: water) was 100 % of control.
For `CCNP(=O)(OCc1ccccc1)N(CCCl)CCCl` (stereo not given), the T/C (dose: 128.0 mg/kg/injection, schedule: Q01DX Z (ip), vehicle: saline) was 109 % of control, the T/C (dose: 256.0 mg/kg/injection, schedule: Q01DX Z (ip), vehicle: saline) was 125 % of control [4 of 6 alive] and the survivor count (dose: 512.0 mg/kg/injection, schedule: Q01DX Z (ip), vehicle: saline) was 0 of 6.
`O=c1[nH]nc([N+](=O)[O-])[nH]1` was tested, and the T/C [2] was 94 % of control [survivor count not shown], the T/C [3] was 101 % of control [survivor count not shown] and the T/C [4] was 100 % of control [survivor count not shown].
With `CCCc1cccc2nc(-c3ccccc3)oc12.O=C1c2cc([N+](=O)[O-])ccc2-c2c1cc([N+](=O)[O-])cc2[N+](=O)[O-]` the T/C (dose: 25.0 mg/kg/injection, schedule: Q01DX001 (ip), vehicle: saline with Tween-80) was 101 % of control [survivor count not shown], the T/C (dose: 50.0 mg/kg/injection, schedule: Q01DX001 (ip), vehicle: saline with Tween-80) was 91 % of control [survivor count not shown] and the T/C [5] was 87 % of control [survivor count not shown]. For the same compound, the T/C (dose: 100.0 mg/kg/injection, schedule: Q01DX001 (ip), vehicle: saline with Tween-80) was 93 % of control [survivor count not shown] and the T/C [6] was 90 % of control [survivor count not shown].
In the case of `Cc1ccc(N(CCCl)CCCl)cc1C`, the T/C (dose: 6.25 mg/kg/injection, schedule: Q01DX009 (ip), vehicle: Klucel (hydroxypropylcellulose) (HPC)) is reported as 102 % of control, the T/C (dose: 12.5 mg/kg/injection, schedule: Q01DX009 (ip), vehicle: Klucel (hydroxypropylcellulose) (HPC)) is reported as 103 % of control and the T/C (dose: 25.0 mg/kg/injection, schedule: Q01DX009 (ip), vehicle: Klucel (hydroxypropylcellulose) (HPC)) is reported as 103 % of control. For the same compound, the T/C (dose: 50.0 mg/kg/injection, schedule: Q01DX009 (ip), vehicle: Klucel (hydroxypropylcellulose) (HPC)) was 108 % of control, the T/C (dose: 100.0 mg/kg/injection, schedule: Q01DX009 (ip), vehicle: Klucel (hydroxypropylcellulose) (HPC)) was 103 % of control and the survivor count (dose: 200.0 mg/kg/injection, schedule: Q01DX009 (ip), vehicle: Klucel (hydroxypropylcellulose) (HPC)) was 8 of 8.
With `CC1CC[P+](c2ccccc2)(c2ccccc2)Cc2ccccc21.F[P-](F)(F)(F)(F)F` (stereo not given) the T/C (dose: 25.0 mg/kg/injection, schedule: Q04DX002 (ip), vehicle: saline with Tween-80) was 93 % of control, the T/C [5] was 96 % of control and the T/C [6] was 104 % of control.
`Nc1ccc(CCCCc2cccc(S(=O)(=O)F)c2)c(Cl)c1.O=[N+]([O-])c1cc([N+](=O)[O-])c(O)c([N+](=O)[O-])c1` was tested, and the T/C (dose: 25.0 mg/kg/injection, schedule: Q01DX009 (ip), vehicle: acetone) was 100 % of control, the T/C (dose: 50.0 mg/kg/injection, schedule: Q01DX009 (ip), vehicle: acetone) was 93 % of control and the T/C (dose: 100.0 mg/kg/injection, schedule: Q01DX009 (ip), vehicle: acetone) was 100 % of control. The T/C [2] was 97 % of control, the survivor count [3] was 3 of 6 and the survivor count [4] was 0 of 6.
`OCC(Cl)C(SCc1ccccc1)c1ccccc1` (stereo not given) was tested, and the T/C [1] was 91 % of control, the T/C [2] was 92 % of control and the T/C (dose: 200.0 mg/kg/injection, schedule: Q01DX009 (ip), vehicle: saline with Tween-80) was 91 % of control. For the same compound, the T/C [3] was 97 % of control and the T/C [4] was 101 % of control.

Reference: PubChem BioAssay AID256 (DTP/NCI, 2004)
